Assay results published in patent US20100266584A1.
No constants are given. Whether binding was seen depends on the method and setting. Some binding calls cover weakened binding; strength is not graded here.

Amino acid sequences for entries named in this document (tags omitted). A change or cut given only in a name is not applied to a line headed by its entry. Residues count along the entry.
UniProt P21860: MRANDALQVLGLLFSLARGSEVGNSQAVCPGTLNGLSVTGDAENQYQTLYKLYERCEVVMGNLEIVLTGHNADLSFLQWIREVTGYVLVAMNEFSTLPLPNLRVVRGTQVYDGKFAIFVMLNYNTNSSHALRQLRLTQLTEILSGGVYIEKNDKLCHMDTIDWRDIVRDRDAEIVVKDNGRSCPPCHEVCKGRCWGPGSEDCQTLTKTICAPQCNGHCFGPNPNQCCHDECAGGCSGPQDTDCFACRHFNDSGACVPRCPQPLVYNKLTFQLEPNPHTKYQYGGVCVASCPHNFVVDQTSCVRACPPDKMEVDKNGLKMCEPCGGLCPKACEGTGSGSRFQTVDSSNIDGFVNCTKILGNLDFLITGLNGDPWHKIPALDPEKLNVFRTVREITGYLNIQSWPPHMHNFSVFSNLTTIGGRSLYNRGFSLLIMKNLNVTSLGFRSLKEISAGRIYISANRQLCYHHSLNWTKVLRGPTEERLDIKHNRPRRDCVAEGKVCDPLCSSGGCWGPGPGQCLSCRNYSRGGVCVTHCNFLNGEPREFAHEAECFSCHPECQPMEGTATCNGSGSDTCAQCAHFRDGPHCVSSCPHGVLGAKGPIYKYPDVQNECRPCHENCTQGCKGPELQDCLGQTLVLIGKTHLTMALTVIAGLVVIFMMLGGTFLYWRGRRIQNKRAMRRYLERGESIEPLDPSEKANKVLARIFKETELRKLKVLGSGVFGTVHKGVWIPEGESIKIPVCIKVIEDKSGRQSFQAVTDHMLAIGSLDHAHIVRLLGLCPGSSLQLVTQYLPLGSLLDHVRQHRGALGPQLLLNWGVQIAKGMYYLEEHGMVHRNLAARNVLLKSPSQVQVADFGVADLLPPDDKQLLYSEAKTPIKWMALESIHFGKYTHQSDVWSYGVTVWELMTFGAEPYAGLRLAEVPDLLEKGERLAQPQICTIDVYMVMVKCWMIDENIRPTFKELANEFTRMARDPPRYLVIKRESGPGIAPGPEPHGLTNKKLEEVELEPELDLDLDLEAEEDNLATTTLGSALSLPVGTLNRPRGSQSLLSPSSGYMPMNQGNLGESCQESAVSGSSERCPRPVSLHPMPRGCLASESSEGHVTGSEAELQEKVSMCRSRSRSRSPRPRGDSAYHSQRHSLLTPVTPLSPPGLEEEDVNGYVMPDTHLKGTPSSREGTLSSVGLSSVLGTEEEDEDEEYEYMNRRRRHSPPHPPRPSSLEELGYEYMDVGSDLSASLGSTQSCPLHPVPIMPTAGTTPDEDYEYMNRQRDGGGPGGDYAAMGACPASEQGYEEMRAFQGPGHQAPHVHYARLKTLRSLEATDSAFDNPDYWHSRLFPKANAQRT
UniProt O14944, residues 63-108: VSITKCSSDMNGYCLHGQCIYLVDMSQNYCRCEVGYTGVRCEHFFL

Tests used:
[1] = molecular target: ErbB3, full length, on cells (human) (UniProt P21860); assay: FACS, 1 uM biotinylated epiregulin on AdrR cells
ErbB1 on AdrR cells [2] = molecular target: ErbB1 on AdrR cells (UniProt P00533); assay: FACS, biotinylated BTC on AdrR cells
ErbB1 on AdrR cells [3] = molecular target: ErbB1 on AdrR cells (UniProt P00533); assay: FACS, biotinylated BTC on AdrR cells, streptavidin-PE

For “epiregulin (from UniProt O14944 63-108) (ligand)”, the binding [1] was “binds”.

B1: betacellulin (ligand, UniProt P35070 32-111, looked up)
chain: DGNSTRSPETNGLLCGDPEENCAATTTQSKRKGHFSRCPKQYKHYCIKGRCRFVVAEQTPSCVCDEGYIGARCERVDLFY
modifications: biotinylated (FACS binding assays)
With B1 the binding (ErbB1 on AdrR cells [2]) was “binds” and the binding (ErbB1 on AdrR cells [3]) was “binds”.
